# Values of other authors as cited in patent publication EP0616804A1 (priority 1993, dated 1994).
# Where two headings read alike, the source gives them in different places.
# Details: rat, in vivo, cited from earlier work
smiles,measurement,setting,value
CN1C(=O)CN=C(c2ccccc2)c2cc(Cl)ccc21 [Diazepam],LD₅₀,ip,300 mg/kg
same,LD₅₀,po,352 mg/kg
